The list shows only some results of the screen, not a fair sample: it is rich in T/C values a quarter to a half above the control, in often repeated tests (any T/C) and in doses without a T/C. Further doses and runs are listed elsewhere. T/C: endpoint of the treated group in % of that of the vehicle group. Some doses have a count of surviving animals in place of a T/C: the source files T/C as zero there, which appears to mark a toxic dose or a test without result, not a measured value. Some doses without a T/C left all or most animals alive at the check, yet need not have been tolerated: the source hardly ever lists a survival T/C far under the control, and the zero likely stands for such cases as well. Survivors were counted at the toxicity check, usually on the fifth day, unless a day is given; later deaths do not show. Schedules are NCI's codes, read here as Q, the interval in days (D) or hours (H), X, the number of doses. Additions like (4×) say how often a value occurs here. Some entries were tested several times; the results are listed from low to high. For survival time, the PubChem record calls one and a half times the control and up active, and a quarter to a half above the control has no call in these data; cut-offs in other NCI protocols can differ. Some T/C values carry the count of animals alive at the toxicity check (mostly the fifth day); where none is given, no animal had died by that day.
System: P388 leukemia ip, CD2F1 mice, survival T/C
Assay: NCI In Vivo Anticancer Drug Screen. Data for tumor model P388 Leukemia (intraperitoneal) in CD2F1 (CDF1) mice
Settings: T/C endpoint: median survival time, higher T/C = longer survival
[1] = dose: 100.0 mg/kg/injection, schedule: Q01DX005 (ip), vehicle: saline
[2] = dose: 120.0 mg/kg/injection, schedule: Q01DX005 (ip), vehicle: saline with Tween-80
[3] = dose: 240.0 mg/kg/injection, schedule: Q01DX005 (ip), vehicle: saline with Tween-80
[4] = dose: 100.0 mg/kg/injection, schedule: Q01DX005 (ip), vehicle: saline with Tween-80
[5] = dose: 100.0 mg/kg/injection, schedule: Q01DX009 (ip), vehicle: saline with Tween-80
[6] = dose: 200.0 mg/kg/injection, schedule: Q01DX009 (ip), vehicle: saline with Tween-80
[7] = dose: 400.0 mg/kg/injection, schedule: Q04DX003 (ip), vehicle: saline
[8] = dose: 240.0 mg/kg/injection, schedule: Q01DX005 (ip), vehicle: Klucel (hydroxypropylcellulose) (HPC)

## CCC(C)N(CCNc1cc(OC)cc2cccnc12)CC(C)C (configuration not stated)
[1]
  survivor count: 4 of 5
dose: 200.0 mg/kg/injection, schedule: Q01DX005 (ip), vehicle: saline
  survivor count: 0 of 5

## O=C1C(=O)c2ccccc2C(O)=C1CCCc1ccc(C2CCCCC2)cc1
dose: 25.0 mg/kg/injection, schedule: Q01DX009 (ip), vehicle: saline with Tween-80
  survivor count: 6 of 6

## O=S(=O)([O-])[O-].OCCNCCNCC[OH2+].OCCNCCNCC[OH2+].[Ni+2]
dose: 50.0 mg/kg/injection, schedule: Q01DX009 (ip), vehicle: saline
  survivor count: 6 of 6

## CCCCC1CN1C(=N)OCC (configuration not stated)
dose: 12.5 mg/kg/injection, schedule: Q01DX005 (ip), vehicle: saline
  survivor count: 6 of 6
dose: 50.0 mg/kg/injection, schedule: Q01DX005 (ip), vehicle: saline
  survivor count: 6 of 6
[1]
  survivor count: 3 of 6
[2]
  survivor count: 1 of 6
[3]
  survivor count: 0 of 6

## CC(C)N(C(C)C)p1n(C(C)(C)C)n1C(C)(C)C
dose: 50.0 mg/kg/injection, schedule: Q01DX005 (ip), vehicle: Klucel (hydroxypropylcellulose) (HPC)
  survivor count: 2 of 6
dose: 100.0 mg/kg/injection, schedule: Q01DX005 (ip), vehicle: Klucel (hydroxypropylcellulose) (HPC)
  survivor count: 2 of 6
dose: 200.0 mg/kg/injection, schedule: Q01DX005 (ip), vehicle: Klucel (hydroxypropylcellulose) (HPC)
  survivor count: 0 of 6

## CC[C@]1(O)CN2CCc3c([nH]c4ccccc34)[C@@](C(=O)OC)(c3cc4c(cc3OC)N(C)[C@H]3[C@@](O)(C(=O)OC)[C@H](OC(C)=O)[C@]5(CC)C=CCN6CC[C@]43[C@@H]65)C[C@H](C2=O)[C@H]1O
dose: 32.0 mg/kg/injection, schedule: Q01DX001 (ip), vehicle: water
  T/C: 127 % of control (2×)
dose: 64.0 mg/kg/injection, schedule: Q01DX001 (ip), vehicle: water
  T/C: 132 and 136 % of control
dose: 256.0 mg/kg/injection, schedule: Q01DX001 (ip), vehicle: water
  survivor count: 3 of 6

## CCSC(C(OC(C)=O)C(OC(C)=O)C(OC(C)=O)C(COC(C)=O)OC(C)=O)n1cnc2c(=S)nc[nH]c21 (configuration not stated)
[4]
  survivor count: 6 of 6

## O=S(=O)(O)c1ccc2cc3nn(-c4ccc(/C=C/c5ccc(-n6nc7cc8ccc(S(=O)(=O)O)cc8cc7n6)cc5S(=O)(=O)O)c(S(=O)(=O)O)c4)nc3cc2c1
dose: 200.0 mg/kg/injection, schedule: Q01DX009 (ip), vehicle: saline
  survivor count: 2 of 6

## OCC(O)CCBr (configuration not stated)
[5]
  T/C: 136 % of control
[6]
  survivor count: 2 of 6
dose: 400.0 mg/kg/injection, schedule: Q01DX009 (ip), vehicle: saline with Tween-80
  survivor count: 0 of 6 (2×)
dose: 600.0 mg/kg/injection, schedule: Q01DX009 (ip), vehicle: saline with Tween-80
  survivor count: 0 of 6

## C=C(C)C12CC(C)C34OC(CCCCCCCCC)(OC1C3C1OC1(CO)C(O)C1(O)C(=O)C(C)=CC14)O2 (configuration not stated)
dose: 80.0 micrograms/kg/injection, schedule: Q01DX009 (ip), vehicle: saline + alcohol
  T/C: 131 % of control

## O=c1[nH]oc2c1CCNC2
[7]
  survivor count: 1 of 6

## CC1CCC2CC(C3CCCC[N-]3)[N-]C(N)C2C1.CC1CCC2CC(C3CCCC[N-]3)[N-]C(N)C2C1.O=[N+]([O-])O.[Cu+] (configuration not stated)
dose: 50.0 mg/kg/injection, schedule: Q04DX002 (ip), vehicle: saline
  survivor count: 2 of 6
dose: 100.0 mg/kg/injection, schedule: Q04DX002 (ip), vehicle: saline
  survivor count: 1 of 6
dose: 200.0 mg/kg/injection, schedule: Q04DX002 (ip), vehicle: suspension in saline
  survivor count: 6 of 6
dose: 400.0 mg/kg/injection, schedule: Q04DX002 (ip), vehicle: suspension in saline
  survivor count: 4 of 6

## C/[N+]([O-])=N\Nc1ccccc1SCCSc1ccccc1N/N=[N+](\C)[O-]
[8]
  survivor count: 6 of 6

## O=c1cc[nH]c2ccc3ccccc3c12
dose: 400.0 mg/kg/injection, schedule: Q01DX001 (ip), vehicle: Klucel (hydroxypropylcellulose) (HPC)
  survivor count: 0 of 5

## CN1C=C(c2ccccc2)C=C(c2ccccc2)C1S(=O)(=O)O (configuration not stated)
dose: 50.0 mg/kg/injection, schedule: Q01DX005 (ip), vehicle: saline + Tween-80 + alcohol
  survivor count: 0 of 4 and 0 of 6
dose: 100.0 mg/kg/injection, schedule: Q01DX005 (ip), vehicle: saline + Tween-80 + alcohol
  survivor count: 0 of 6
dose: 200.0 mg/kg/injection, schedule: Q01DX005 (ip), vehicle: saline + Tween-80 + alcohol
  survivor count: 0 of 6

## COSc1ccc(OC)cc1
[7]
  survivor count: 4 of 6

## N#CC1CCC(c2ccccc2)(c2ccccc2)C1=O (configuration not stated)
dose: 400.0 mg/kg/injection, schedule: Q04DX003 (ip), vehicle: Klucel (hydroxypropylcellulose) (HPC)
  survivor count: 3 of 6

## CCCCN(CCCC)C(Cl)=NCCC
dose: 200.0 mg/kg/injection, schedule: Q01DX009 (ip), vehicle: Klucel (hydroxypropylcellulose) (HPC)
  survivor count: 4 of 6

## Cc1nn(C(=O)c2ccccn2)c(-c2ccccc2)c1N=Nc1ccc(S(=O)(=O)Nc2ncccn2)cc1
[3]
  survivor count: 3 of 6

## CC(=O)/C(=C\c1ccc(Cl)c(Cl)c1)C(=O)C(C)CN(C)C (configuration not stated)
dose: 25.0 mg/kg/injection, schedule: Q01DX005 (ip), vehicle: saline with Tween-80
  T/C: 127 % of control
[4]
  T/C: 130 % of control [4 of 6 alive]
  survivor count: 0 of 6
dose: 200.0 mg/kg/injection, schedule: Q01DX005 (ip), vehicle: saline with Tween-80
  survivor count: 0 of 6

## CCC(=O)N(C)C(C)C(=O)OC1CC(=O)N(C)c2cc(cc(OC)c2Cl)CC(C)CCCC(OC)C2(O)CC(OC(=O)N2)C(C)C2OC12C (configuration not stated)
dose: 25.0 micrograms/kg/injection, schedule: Q01DX009 (ip), vehicle: saline + alcohol
  survivor count: 6 of 6

## CC1(C)CCC2(C(=O)O)CCC3(C)C(=CCC4C5(C)CC(O)C(O)C(C)(C(=O)O)C5CCC43C)C2C1 (configuration not stated)
dose: 16.25 mg/kg/injection, schedule: Q01DX005 (ip), vehicle: saline
  survivor count: 2 of 6
dose: 32.5 mg/kg/injection, schedule: Q01DX005 (ip), vehicle: saline
  survivor count: 2 of 6
dose: 65.0 mg/kg/injection, schedule: Q01DX005 (ip), vehicle: saline
  survivor count: 0 of 6
dose: 130.0 mg/kg/injection, schedule: Q01DX005 (ip), vehicle: saline
  survivor count: 0 of 6

## COc1ccc(C(c2c(O)c3ccccc3oc2=O)c2c(O)c3ccccc3oc2=O)cc1
[2]
  survivor count: 5 of 6
[3]
  survivor count: 3 of 5

## CCCCCCCC[N+](C)(C)CC#CC[N+](C)(C)CCCCCCCC
dose: 25.0 mg/kg/injection, schedule: Q04DX003 (ip), vehicle: saline
  survivor count: 0 of 6 and 4 of 6
dose: 50.0 mg/kg/injection, schedule: Q04DX003 (ip), vehicle: saline
  survivor count: 0 of 6
dose: 100.0 mg/kg/injection, schedule: Q04DX003 (ip), vehicle: saline
  survivor count: 0 of 6
dose: 200.0 mg/kg/injection, schedule: Q04DX003 (ip), vehicle: saline
  survivor count: 0 of 6
[7]
  survivor count: 0 of 6

## CCCC(NC(N)=O)C(CCC)NC(N)=O (configuration not stated)
[5]
  survivor count: 4 of 6
[6]
  survivor count: 0 of 6

## CN=C(NC#N)NCCSCc1ccc2ccccc2n1
dose: 200.0 mg/kg/injection, schedule: Q01DX005 (ip), vehicle: distilled water + Tween-80 + alcohol
  survivor count: 0 of 5

## CC1(C)O[Te]2(OC1(C)C)OC(C)(C)C(C)(C)O2
dose: 12.5 mg/kg/injection, schedule: Q01DX001 (ip), vehicle: saline with Tween-80
  survivor count: 3 of 6
dose: 200.0 mg/kg/injection, schedule: Q01DX001 (ip), vehicle: saline with Tween-80
  survivor count: 2 of 6
dose: 400.0 mg/kg/injection, schedule: Q01DX001 (ip), vehicle: saline with Tween-80
  survivor count: 0 of 6

## CCOc1ccc(NC(=O)C2=C(C)NC(C)=C(C(=O)Nc3ccc(OCC)cc3)C2c2cccc([N+](=O)[O-])c2)cc1
dose: 120.0 mg/kg/injection, schedule: Q01DX005 (ip), vehicle: Klucel (hydroxypropylcellulose) (HPC)
  survivor count: 6 of 6
[8]
  survivor count: 5 of 6

## ClC1CC[N-]CC1.ClC1CC[N-]CC1.[Cl][Pt+2]([Cl])([Cl])[Cl]
dose: 3.12 mg/kg/injection, schedule: Q01DX009 (ip), vehicle: Klucel (hydroxypropylcellulose) (HPC)
  T/C: 140 % of control
dose: 6.25 mg/kg/injection, schedule: Q01DX009 (ip), vehicle: saline
  T/C: 136 % of control [5 of 6 alive]
